Experimental data from PubChem BioAssay AID192 (DTP/NCI, 2004).
The list shows only some results of the screen, not a fair sample: it gathers tests that were run many times, whatever their T/C, doses with no T/C, and many T/C values between a quarter and a half above the control. Other doses and runs of a compound stand elsewhere. T/C: endpoint of the treated group in % of that of the vehicle group. Some doses have a count of surviving animals in place of a T/C: the source holds a T/C of zero for them, seemingly a mark for toxic or unscored doses. Some doses without a T/C left all or most animals alive at the check, yet need not have been tolerated: survival well below the control is almost never listed, so the zero probably covers shortened survival too. Counts of survivors are from the toxicity check (mostly the fifth day) where no day follows; animals may have died later. Schedule codes are those of the source, read here as Q, the interval in days (D) or hours (H), X, the number of doses. Counts like (3×) stand for listed records that agree. Some entries hold several experiments; their values stand side by side, smallest first. For survival time, this PubChem deposit counts one and a half times the control or more as active, and values a quarter to a half above the control carry no call in these data; other NCI protocols may use other cut-offs. Some T/C values carry the count of animals alive at the toxicity check (mostly the fifth day); where none is given, no animal had died by that day.

System: BDF1 mice, B16 melanoma ip, median survival T/C
Test: NCI In Vivo Anticancer Drug Screen. Data for tumor model B16 Melanoma (intraperitoneal) in B6D2F1 (BDF1) mice
Settings: T/C endpoint: median survival time, higher T/C = longer survival
How it was run: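 Vehicle-treated animals serve as the reference (C); treated animals (T) are scored for survival or tumor size after tumor transplantation.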

[1] = dose: 16.0 mg/kg/injection, schedule: Q01DX009 (ip), vehicle: saline
[2] = dose: 200.0 mg/kg/injection, schedule: Q04DX003 (ip), vehicle: saline with Tween-80
[3] = dose: 25.0 mg/kg/injection, schedule: Q01DX009 (ip), vehicle: Klucel (hydroxypropylcellulose) (HPC)
[4] = dose: 100.0 mg/kg/injection, schedule: Q01DX009 (ip), vehicle: Klucel (hydroxypropylcellulose) (HPC)
[5] = dose: 200.0 mg/kg/injection, schedule: Q01DX009 (ip), vehicle: Klucel (hydroxypropylcellulose) (HPC)
[6] = dose: 400.0 mg/kg/injection, schedule: Q01DX009 (ip), vehicle: Klucel (hydroxypropylcellulose) (HPC)
[7] = dose: 200.0 mg/kg/injection, schedule: Q01DX009 (ip), vehicle: saline with Tween-80
[8] = dose: 400.0 mg/kg/injection, schedule: Q04DX003 (ip), vehicle: saline with Tween-80
[9] = dose: 50.0 mg/kg/injection, schedule: Q01DX009 (ip), vehicle: saline
[10] = dose: 25.0 mg/kg/injection, schedule: Q01DX009 (ip), vehicle: saline with Tween-80
[11] = dose: 100.0 mg/kg/injection, schedule: Q01DX009 (ip), vehicle: saline
[12] = dose: 12.5 mg/kg/injection, schedule: Q01DX009 (ip), vehicle: saline

In the case of `S=P(N1CC1)(N1CC1)N1CC1`, the T/C (dose: 1.0 mg/kg/injection, schedule: Q01DX009 (ip), vehicle: saline, evaluated on day 45) is reported as 87 and 115 % of control, the T/C (dose: 1.0 mg/kg/injection, schedule: Q01DX009 (ip), vehicle: saline, evaluated on day 60) is reported as 100 (2×), 105, 115, 118 % of control [9 of 10 alive] and the T/C (dose: 2.0 mg/kg/injection, schedule: Q01DX009 (ip), vehicle: saline, evaluated on day 45) is reported as 89 and 110 % of control. For the same molecule, the T/C (dose: 2.0 mg/kg/injection, schedule: Q01DX009 (ip), vehicle: saline, evaluated on day 60) was 94, 100, 110, 116, 130 % of control, the T/C (dose: 2.0 mg/kg/injection, schedule: Q02DX009 (ip), vehicle: saline) was 126 % of control and the T/C (dose: 3.0 mg/kg/injection, schedule: Q02DX009 (ip), vehicle: saline) was 127 % of control. For the same molecule, the T/C (dose: 4.0 mg/kg/injection, schedule: Q01DX009 (ip), vehicle: saline, evaluated on day 45) was 94 and 129 % of control, the T/C (dose: 4.0 mg/kg/injection, schedule: Q01DX009 (ip), vehicle: saline, evaluated on day 60) was 89, 108, 113, 121, 138 % of control and the T/C (dose: 4.0 mg/kg/injection, schedule: Q02DX009 (ip), vehicle: saline) was 135 % of control. The survivor count (dose: 6.0 mg/kg/injection, schedule: Q01DX009 (ip), vehicle: saline) was 10 of 10, the T/C (dose: 8.0 mg/kg/injection, schedule: Q01DX009 (ip), vehicle: saline, evaluated on day 45) was 86 % of control and the T/C (dose: 8.0 mg/kg/injection, schedule: Q01DX009 (ip), vehicle: saline, evaluated on day 60) was 115 % of control. The survivor count (dose: 8.0 mg/kg/injection, schedule: Q01DX009 (ip), vehicle: saline) was 10 of 10 (2×), the survivor count (dose: 8.0 mg/kg/injection, schedule: Q02DX009 (ip), vehicle: saline) was 10 of 10 and the survivor count (dose: 12.0 mg/kg/injection, schedule: Q01DX009 (ip), vehicle: saline) was 10 of 10. The survivor count (dose: 12.0 mg/kg/injection, schedule: Q02DX009 (ip), vehicle: saline) was 10 of 10, the T/C [1] was 97 % of control and the survivor count [1] was 3 of 10, 9 of 10, 10 of 10 (2×). For the same molecule, the survivor count (dose: 16.0 mg/kg/injection, schedule: Q02DX009 (ip), vehicle: saline) was 10 of 10, the survivor count (dose: 24.0 mg/kg/injection, schedule: Q01DX009 (ip), vehicle: saline) was 2 of 10 and 3 of 10 and the survivor count (dose: 24.0 mg/kg/injection, schedule: Q02DX009 (ip), vehicle: saline) was 9 of 10 and 10 of 10. For the same molecule, the survivor count (dose: 32.0 mg/kg/injection, schedule: Q02DX009 (ip), vehicle: saline) was 2 of 10 and 5 of 10 and the survivor count (dose: 64.0 mg/kg/injection, schedule: Q02DX009 (ip), vehicle: saline) was 2 of 10 and 7 of 10.
`CC(=O)NC1CCCCC1` was tested, and the T/C [2] was 129 % of control.
For `CCOC(=O)C1(C)C=C(Nc2ccc(OC)cc2)C(=O)N1c1ccc(OC)cc1` (stereo not drawn), the survivor count [3] was 10 of 10, the survivor count (dose: 50.0 mg/kg/injection, schedule: Q01DX009 (ip), vehicle: Klucel (hydroxypropylcellulose) (HPC)) was 9 of 10 and the survivor count [4] was 9 of 10. For the same molecule, the survivor count [5] was 7 of 10 and the survivor count [6] was 2 of 10.
In the case of `OC(Cc1nc2ccccc2s1)(C(F)(F)F)C(F)(F)F`, the T/C [7] is reported as 125 % of control and the survivor count [2] is reported as 8 of 10.
`CC(=O)OC1COC(NC(=O)N(CCCl)N=O)C(OC(C)=O)C1OC(C)=O` (stereo not drawn) was tested, and the T/C (dose: 0.75 mg/kg/injection, schedule: Q01DX009 (ip), vehicle: saline with Tween-80) was 136 % of control and the T/C (dose: 0.78 mg/kg/injection, schedule: Q01DX009 (ip), vehicle: saline with Tween-80) was 134 % of control [9 of 10 alive].
In the case of `CCOC(=O)C(Cc1ccc(Cl)c(Cl)c1)(Cc1ccc(Cl)c(Cl)c1)C(=O)OCC`, the survivor count (dose: 100.0 mg/kg/injection, schedule: Q01DX009 (ip), vehicle: saline with Tween-80) is reported as 10 of 10, the survivor count [7] is reported as 10 of 10 and the survivor count (dose: 400.0 mg/kg/injection, schedule: Q01DX009 (ip), vehicle: saline with Tween-80) is reported as 10 of 10.
`c1ccc(-c2nc(N3CCOCC3)nc3ccccc23)cc1` was tested, and the survivor count [8] was 10 of 10.
In the case of `O=c1cc2oc3c(O)c(O)ccc3c3c4ccccc4c(=O)c(c1)c23`, the survivor count [9] is reported as 10 of 10.
In the case of `C=COC(=O)CCCCCCCCCCCCCCCCC`, the survivor count [4] is reported as 6 of 6, the survivor count [5] is reported as 6 of 6 and the survivor count [6] is reported as 6 of 6.
With `NC(=S)N/N=C/c1ccc(OC(F)(F)F)cn1` the survivor count [10] was 7 of 10.
With `O=C(NCCCN1CC1)C(=O)NCCCN1CC1` the T/C (dose: 0.78 mg/kg/injection, schedule: Q01DX009 (ip), vehicle: saline) was 127 % of control, the survivor count (dose: 25.0 mg/kg/injection, schedule: Q01DX009 (ip), vehicle: saline) was 0 of 10 and the survivor count [9] was 0 of 10. The survivor count [11] was 0 of 10.
With `COc1cc(/C=C(/C)[N+](=O)[O-])ccc1O` the survivor count (dose: 200.0 mg/kg/injection, schedule: Q01DX009 (ip), vehicle: carboxymethylcellulose (CMC)) was 4 of 10.
With `Cc1nc2ccccc2nc1CBr` the survivor count (dose: 0.2 mg/kg/injection, schedule: Q01DX009 (ip), vehicle: saline with Tween-80) was 10 of 10, the survivor count [12] was 5 of 6 and the survivor count [3] was 5 of 10. The survivor count [10] was 0 of 6 and the survivor count (dose: 50.0 mg/kg/injection, schedule: Q01DX009 (ip), vehicle: saline with Tween-80) was 0 of 6.
In the case of `CN(C)CCC=C1c2ccccc2C=Cc2ccccc21`, the T/C (dose: 3.12 mg/kg/injection, schedule: Q01DX009 (ip), vehicle: saline) is reported as 126 % of control, the survivor count [12] is reported as 7 of 10 and the survivor count [9] is reported as 0 of 10. For the same molecule, the survivor count [11] was 0 of 10 (2×), the survivor count (dose: 200.0 mg/kg/injection, schedule: Q01DX009 (ip), vehicle: saline) was 0 of 10 (2×) and the survivor count (dose: 400.0 mg/kg/injection, schedule: Q01DX009 (ip), vehicle: saline) was 0 of 10 (2×).
With `CC(=O)OCC(OC(C)=O)C(OC(C)=O)C(OC(C)=O)C(C#N)OC(C)=O` (stereo not drawn) the survivor count [8] was 10 of 10.
With `CCCCCCCCCCCCCCCCN(C)S(=O)(=O)c1ccc2sc(SC)[n+](C)c2c1` (tested in a mixture with another compound) the survivor count (dose: 50.0 mg/kg/injection, schedule: Q04DX003 (ip), vehicle: saline with Tween-80) was 8 of 8, the survivor count (dose: 100.0 mg/kg/injection, schedule: Q04DX003 (ip), vehicle: saline with Tween-80) was 10 of 10 and the survivor count [2] was 10 of 10. The survivor count [8] was 10 of 10.
